Data as given in PubChem BioAssay AID1259331 (Drosophila RNAi Screening Center, 2017)
Here is a random part of about 3,100 reagents tested. Over the whole deposit, 126 (4.1%) were called active. 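Calls are per reagent; zinc was so toxic that few knock-downs lowered ATP further, so most hits raise ATP.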 Raw values are not corrected between plates. A plus sign joins genes that one reagent is predicted to hit. Not given: the amount of reagent.

Aim: 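Fly transmembrane-protein genes that affect zinc toxicity in cultured cells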 (primary screen)
Cell system: Drosophila S2R+ cells
Reagent: long dsRNA against Drosophila genes
Time to read-out: 5 days (4 days knock-down, then 1 day zinc)
Treatment: zinc chloride at 15 mM final level for 1 day
Measurement: 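Total cellular ATP measured by luciferase luminescence as a viability proxy, turned into Z scores from three plate copies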
Reading the numbers: mean Z score: higher = more ATP than other wells, better survival under zinc; ATP luminescence: higher = more ATP, more viable cells
Rule for the call: 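Hit when the absolute Z score is greater than 1.5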
Calls: active = hit, ATP up or down; inactive = not a hit

| Gene | amplicon | mean Z score | ATP luminescence, replicate 1 | ATP luminescence, replicate 2 | Call |
| --- | --- | --- | --- | --- | --- |
| Mvl (GeneID 42490) | DRSC16752 | -0.0746 | 43434 | 47549 | inactive |
| Mvl (GeneID 42490) | DRSC39671 | 0.961 | 76925 | 77800 | inactive |
| nemy (GeneID 36395) | DRSC05357 | 1.14 | 55608 | 62535 | inactive |
| nemy (GeneID 36395) | DRSC26532 | -0.6 | 59037 | 45937 | inactive |
| Ror (GeneID 34367) | DRSC03414 | 0.144 | 51938 | 41273 | inactive |
| Ror (GeneID 34367) | DRSC36669 | -0.282 | 44377 | 44068 | inactive |
| Ror (GeneID 34367) | DRSC36670 | -0.107 | 46074 | 45440 | inactive |
| bumpel (GeneID 41368) | DRSC16100 | 0.578 | 39079 | 68624 | inactive |
| GluClalpha (GeneID 42350) | DRSC16680 | 0.211 | 39730 | 61335 | inactive |
| Sc2 (GeneID 38457) | DRSC08162 | -0.281 | 29898 | 27405 | inactive |
| Sc2 (GeneID 38457) | DRSC26153 | 0.161 | 57768 | 58934 | inactive |
| mdy (GeneID 44887) | DRSC01559 | -0.309 | 37413 | 40399 | inactive |
| mdy (GeneID 44887) | DRSC02250 | -0.83 | 40793 | 48457 | inactive |
| Sys1 + Dhod | DRSC39530 | 1.78 | 76119 | 71368 | active |
| Glut3 (GeneID 42036) | DRSC16681 | -0.64 | 35370 | 50618 | inactive |
| Glut3 (GeneID 42036) | DRSC26249 | 0.318 | 61678 | 70716 | inactive |
| Inx7 (GeneID 33027) | DRSC18784 | -0.232 | 64726 | 59616 | inactive |
| Inx7 (GeneID 33027) | DRSC24113 | -0.566 | 35856 | 58111 | inactive |
| OtopLa (GeneID 8674066) | DRSC23226 | -0.12 | 47942 | 44960 | inactive |
| OtopLa (GeneID 8674066) | DRSC29861 | 0.206 | 53756 | 48358 | inactive |
| Ent2 (GeneID 33921) | DRSC28879 | -1.11 | 46314 | 42268 | inactive |
| Ent2 (GeneID 33921) | DRSC39799 | -0.323 | 52487 | 50772 | inactive |
| CG42685 (GeneID 34854) | DRSC01971 | -0.521 | 44565 | 37125 | inactive |
| CG42685 (GeneID 34854) | DRSC39526 | 0.0605 | 51597 | 52795 | inactive |
| CG15221 (GeneID 32127) | DRSC19659 | 0.0719 | 59876 | 74764 | inactive |
| CG2938 (GeneID 31347) | DRSC27919 | 0.115 | 46834 | 63136 | inactive |
| Ptp69D (GeneID 39443) | DRSC11258 | -0.146 | 71968 | 58437 | inactive |
| Ptp69D (GeneID 39443) | DRSC36691 | -0.117 | 45552 | 45800 | inactive |
| Ptp69D (GeneID 39443) | DRSC36692 | -0.0996 | 50326 | 43879 | inactive |
